Laboratory results from article PMC10936415.

Molecular target: Legionella hackeliae Lha0223 (VipF ortholog), 6xHis-SBP-tagged (Legionella hackeliae)
Experiment: affinity purification with mass spectrometry; only the target purified

B1: DEAD-box helicase 57 (protein, UniProt Q6P158 1-1386)
chain: MSSSVRRKGKPGKGGGKGSSRGGRGGRSHASKSHGSGGGGGGGGGGGGGNRKASSRIWDDGDDFCIFSESRRPSRPSNSNISKGESRPKWKPKAKVPLQTLHMTSENQEKVKALLRDLQEQDADAGSERGLSGEEEDDEPDCCNDERYWPAGQEPSLVPDLDPLEYAGLASVEPYVPEFTVSPFAVQKLSRYGFNTERCQAVLRMCDGDVGASLEHLLTQCFSETFGERMKISEAVNQISLDECMEQRQEEAFALKSICGEKFIERIQNRVWTIGLELEYLTSRFRKSKPKESTKNVQENSLEICKFYLKGNCKFGSKCRFKHEVPPNQIVGRIERSVDDSHLNAIEDASFLYELEIRFSKDHKYPYQAPLVAFYSTNENLPLACRLHISEFLYDKALTFAETSEPVVYSLITLLEEESEIVKLLTNTHHKYSDPPVNFLPVPSRTRINNPACHKTVIPNNSFVSNQIPEVEKASESEESDEDDGPAPVIVENESYVNLKKKISKRYDWQAKSVHAENGKICKQFRMKQASRQFQSILQERQSLPAWEERETILNLLRKHQVVVISGMTGCGKTTQIPQFILDDSLNGPPEKVANIICTQPRRISAISVAERVAKERAERVGLTVGYQIRLESVKSSATRLLYCTTGVLLRRLEGDTALQGVSHIIVDEVHERTEESDFLLLVLKDIVSQRPGLQVILMSATLNAELFSDYFNSCPVITIPGRTFPVDQFFLEDAIAVTRYVLQDGSPYMRSMKQISKEKLKARRNRTAFEEVEEDLRLSLHLQDQDSVKDAVPDQQLDFKQLLARYKGVSKSVIKTMSIMDFEKVNLELIEALLEWIVDGKHSYPPGAILVFLPGLAEIKMLYEQLQSNSLFNNRRSNRCVIHPLHSSLSSEEQQAVFVKPPAGVTKIIISTNIAETSITIDDVVYVIDSGKMKEKRYDASKGMESLEDTFVSQANALQRKGRAGRVASGVCFHLFTSHHYNHQLLKQQLPEIQRVPLEQLCLRIKILEMFSAHNLQSVFSRLIEPPHTDSLRASKIRLRDLGALTPDERLTPLGYHLASLPVDVRIGKLMLFGSIFRCLDPALTIAASLAFKSPFVSPWDKKEEANQKKLEFAFANSDYLALLQAYKGWQLSTKEGVRASYNYCRQNFLSGRVLQEMASLKRQFTELLSDIGFAREGLRAREIEKRAQGGDGVLDATGEEANSNAENPKLISAMLCAALYPNVVQVKSPEGKFQKTSTGAVRMQPKSAELKFVTKNDGYVHIHPSSVNYQVRHFDSPYLLYHEKIKTSRVFIRDCSMVSVYPLVLFGGGQVNVQLQRGEFVVSLDDGWIRFVAASHQVAELVKELRCELDQLLQDKIKNPSIDLCTCPRGSRIISTIVKLVTTQ
binding: binds

Results are given in words; binding and its absence hold for the method and conditions named. In cells and extracts the contact can be indirect. Here binding means that the protein was enriched with, or labelled near, the bait; the list need not be complete.
